Data taken from the supplement of paper PMC11006884.
This is a selection; strong and weak results do not stand in their true shares. The data scatter; read single values as rough.

By UniProt entry, the sequences of proteins in these tests, tags left out. Where a name states a change or a piece, a line headed by the entry shows the natural chain unless it says otherwise.
UniProt Q96B54: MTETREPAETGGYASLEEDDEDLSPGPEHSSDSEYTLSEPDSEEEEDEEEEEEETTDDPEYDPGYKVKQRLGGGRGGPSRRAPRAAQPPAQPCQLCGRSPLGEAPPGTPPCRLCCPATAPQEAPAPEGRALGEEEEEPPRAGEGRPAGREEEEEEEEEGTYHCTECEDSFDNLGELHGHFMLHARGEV
UniProt Q92575: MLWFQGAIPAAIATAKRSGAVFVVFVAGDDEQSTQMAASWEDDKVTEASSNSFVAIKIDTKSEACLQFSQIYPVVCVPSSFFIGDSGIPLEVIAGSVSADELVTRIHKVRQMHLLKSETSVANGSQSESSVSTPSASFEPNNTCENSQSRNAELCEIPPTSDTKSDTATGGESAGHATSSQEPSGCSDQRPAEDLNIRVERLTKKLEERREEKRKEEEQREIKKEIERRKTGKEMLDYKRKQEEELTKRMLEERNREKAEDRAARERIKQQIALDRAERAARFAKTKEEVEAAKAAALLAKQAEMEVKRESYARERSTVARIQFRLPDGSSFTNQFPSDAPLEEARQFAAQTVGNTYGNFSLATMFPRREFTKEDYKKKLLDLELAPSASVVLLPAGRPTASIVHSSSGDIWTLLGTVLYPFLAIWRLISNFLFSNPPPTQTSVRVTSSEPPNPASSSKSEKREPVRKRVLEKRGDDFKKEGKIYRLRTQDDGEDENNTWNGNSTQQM
UniProt Q92574: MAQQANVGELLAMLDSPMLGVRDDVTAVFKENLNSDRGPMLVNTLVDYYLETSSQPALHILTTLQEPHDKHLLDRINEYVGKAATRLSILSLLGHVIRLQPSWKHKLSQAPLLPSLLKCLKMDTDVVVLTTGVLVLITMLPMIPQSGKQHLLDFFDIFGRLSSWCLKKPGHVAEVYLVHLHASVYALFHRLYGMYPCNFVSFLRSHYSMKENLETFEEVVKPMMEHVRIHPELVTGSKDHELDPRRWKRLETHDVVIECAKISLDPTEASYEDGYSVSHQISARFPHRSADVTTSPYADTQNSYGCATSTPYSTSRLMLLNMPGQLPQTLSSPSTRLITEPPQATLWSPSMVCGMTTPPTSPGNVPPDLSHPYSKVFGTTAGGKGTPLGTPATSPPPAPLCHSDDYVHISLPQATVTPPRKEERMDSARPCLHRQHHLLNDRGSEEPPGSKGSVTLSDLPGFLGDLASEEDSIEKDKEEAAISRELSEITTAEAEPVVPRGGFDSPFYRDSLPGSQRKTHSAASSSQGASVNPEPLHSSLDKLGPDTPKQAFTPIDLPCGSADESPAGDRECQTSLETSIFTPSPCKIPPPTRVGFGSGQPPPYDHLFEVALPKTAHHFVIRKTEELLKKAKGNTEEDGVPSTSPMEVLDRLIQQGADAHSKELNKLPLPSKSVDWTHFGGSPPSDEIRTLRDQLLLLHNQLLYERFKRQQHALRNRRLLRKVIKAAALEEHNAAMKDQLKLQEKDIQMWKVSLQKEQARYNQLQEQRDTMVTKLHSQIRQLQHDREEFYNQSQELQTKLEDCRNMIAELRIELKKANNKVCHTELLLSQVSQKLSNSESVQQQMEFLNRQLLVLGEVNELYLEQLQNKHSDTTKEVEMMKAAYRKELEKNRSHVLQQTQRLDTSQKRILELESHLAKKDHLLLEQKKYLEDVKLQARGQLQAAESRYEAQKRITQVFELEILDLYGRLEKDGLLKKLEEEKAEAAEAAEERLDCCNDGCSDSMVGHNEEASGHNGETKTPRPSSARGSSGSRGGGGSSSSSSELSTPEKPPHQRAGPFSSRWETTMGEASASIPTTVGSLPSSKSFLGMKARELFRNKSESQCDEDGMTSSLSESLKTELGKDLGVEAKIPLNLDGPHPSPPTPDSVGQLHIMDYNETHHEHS
UniProt Q969Z0: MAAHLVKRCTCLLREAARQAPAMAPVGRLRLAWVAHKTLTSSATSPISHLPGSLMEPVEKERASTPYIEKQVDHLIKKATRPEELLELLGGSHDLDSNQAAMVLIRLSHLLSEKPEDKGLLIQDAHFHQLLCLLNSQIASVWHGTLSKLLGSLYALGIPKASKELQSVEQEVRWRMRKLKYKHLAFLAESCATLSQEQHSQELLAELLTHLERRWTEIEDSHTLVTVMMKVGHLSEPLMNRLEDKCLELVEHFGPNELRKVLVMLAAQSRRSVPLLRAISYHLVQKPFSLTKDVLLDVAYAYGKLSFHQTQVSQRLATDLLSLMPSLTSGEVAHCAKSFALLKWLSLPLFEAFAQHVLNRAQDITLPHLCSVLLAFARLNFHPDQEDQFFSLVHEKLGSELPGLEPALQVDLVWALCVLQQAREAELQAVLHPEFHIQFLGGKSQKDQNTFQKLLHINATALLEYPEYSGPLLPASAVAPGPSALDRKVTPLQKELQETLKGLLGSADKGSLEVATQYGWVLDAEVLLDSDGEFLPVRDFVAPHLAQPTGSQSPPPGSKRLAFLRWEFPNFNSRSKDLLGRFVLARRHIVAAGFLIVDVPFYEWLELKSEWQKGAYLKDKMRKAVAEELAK
UniProt Q96F86: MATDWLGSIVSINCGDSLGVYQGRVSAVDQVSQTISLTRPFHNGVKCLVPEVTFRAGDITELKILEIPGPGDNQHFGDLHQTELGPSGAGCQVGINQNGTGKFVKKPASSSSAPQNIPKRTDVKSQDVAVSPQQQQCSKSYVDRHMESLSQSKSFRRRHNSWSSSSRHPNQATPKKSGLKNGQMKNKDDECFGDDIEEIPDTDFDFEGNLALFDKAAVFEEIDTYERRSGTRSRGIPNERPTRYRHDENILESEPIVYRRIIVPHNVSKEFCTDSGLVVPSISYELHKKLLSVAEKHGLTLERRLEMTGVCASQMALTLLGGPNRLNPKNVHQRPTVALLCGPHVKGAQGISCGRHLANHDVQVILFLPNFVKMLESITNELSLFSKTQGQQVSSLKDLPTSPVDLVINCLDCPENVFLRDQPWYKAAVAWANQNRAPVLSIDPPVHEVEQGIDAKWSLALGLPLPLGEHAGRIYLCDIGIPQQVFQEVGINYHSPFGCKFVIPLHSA
UniProt Q92990: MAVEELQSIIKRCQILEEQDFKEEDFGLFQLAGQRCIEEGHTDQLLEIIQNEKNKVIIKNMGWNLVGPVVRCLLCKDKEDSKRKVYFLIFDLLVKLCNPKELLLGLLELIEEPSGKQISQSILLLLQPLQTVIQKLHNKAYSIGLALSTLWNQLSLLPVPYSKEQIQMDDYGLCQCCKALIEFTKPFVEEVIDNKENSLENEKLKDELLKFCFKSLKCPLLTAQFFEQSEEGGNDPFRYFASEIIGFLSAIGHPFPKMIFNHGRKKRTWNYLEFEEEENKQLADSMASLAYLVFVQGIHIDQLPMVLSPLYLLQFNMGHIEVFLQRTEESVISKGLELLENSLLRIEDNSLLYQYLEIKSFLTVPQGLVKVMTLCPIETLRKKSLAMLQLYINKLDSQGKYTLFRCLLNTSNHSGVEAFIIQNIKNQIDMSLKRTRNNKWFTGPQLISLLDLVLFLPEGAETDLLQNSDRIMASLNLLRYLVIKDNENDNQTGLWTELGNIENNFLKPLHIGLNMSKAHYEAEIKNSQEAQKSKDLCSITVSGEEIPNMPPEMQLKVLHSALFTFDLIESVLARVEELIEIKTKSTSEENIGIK
UniProt Q96EV8: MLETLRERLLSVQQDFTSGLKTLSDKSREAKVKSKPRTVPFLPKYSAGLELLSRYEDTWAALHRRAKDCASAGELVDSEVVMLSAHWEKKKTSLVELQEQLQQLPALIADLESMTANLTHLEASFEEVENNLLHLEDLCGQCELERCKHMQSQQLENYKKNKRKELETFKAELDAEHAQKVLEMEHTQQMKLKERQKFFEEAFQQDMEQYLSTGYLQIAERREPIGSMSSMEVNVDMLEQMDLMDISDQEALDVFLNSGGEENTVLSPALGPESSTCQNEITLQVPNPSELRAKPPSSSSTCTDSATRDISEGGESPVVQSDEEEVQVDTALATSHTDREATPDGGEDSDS
UniProt Q96HA1, whole entry, looked up: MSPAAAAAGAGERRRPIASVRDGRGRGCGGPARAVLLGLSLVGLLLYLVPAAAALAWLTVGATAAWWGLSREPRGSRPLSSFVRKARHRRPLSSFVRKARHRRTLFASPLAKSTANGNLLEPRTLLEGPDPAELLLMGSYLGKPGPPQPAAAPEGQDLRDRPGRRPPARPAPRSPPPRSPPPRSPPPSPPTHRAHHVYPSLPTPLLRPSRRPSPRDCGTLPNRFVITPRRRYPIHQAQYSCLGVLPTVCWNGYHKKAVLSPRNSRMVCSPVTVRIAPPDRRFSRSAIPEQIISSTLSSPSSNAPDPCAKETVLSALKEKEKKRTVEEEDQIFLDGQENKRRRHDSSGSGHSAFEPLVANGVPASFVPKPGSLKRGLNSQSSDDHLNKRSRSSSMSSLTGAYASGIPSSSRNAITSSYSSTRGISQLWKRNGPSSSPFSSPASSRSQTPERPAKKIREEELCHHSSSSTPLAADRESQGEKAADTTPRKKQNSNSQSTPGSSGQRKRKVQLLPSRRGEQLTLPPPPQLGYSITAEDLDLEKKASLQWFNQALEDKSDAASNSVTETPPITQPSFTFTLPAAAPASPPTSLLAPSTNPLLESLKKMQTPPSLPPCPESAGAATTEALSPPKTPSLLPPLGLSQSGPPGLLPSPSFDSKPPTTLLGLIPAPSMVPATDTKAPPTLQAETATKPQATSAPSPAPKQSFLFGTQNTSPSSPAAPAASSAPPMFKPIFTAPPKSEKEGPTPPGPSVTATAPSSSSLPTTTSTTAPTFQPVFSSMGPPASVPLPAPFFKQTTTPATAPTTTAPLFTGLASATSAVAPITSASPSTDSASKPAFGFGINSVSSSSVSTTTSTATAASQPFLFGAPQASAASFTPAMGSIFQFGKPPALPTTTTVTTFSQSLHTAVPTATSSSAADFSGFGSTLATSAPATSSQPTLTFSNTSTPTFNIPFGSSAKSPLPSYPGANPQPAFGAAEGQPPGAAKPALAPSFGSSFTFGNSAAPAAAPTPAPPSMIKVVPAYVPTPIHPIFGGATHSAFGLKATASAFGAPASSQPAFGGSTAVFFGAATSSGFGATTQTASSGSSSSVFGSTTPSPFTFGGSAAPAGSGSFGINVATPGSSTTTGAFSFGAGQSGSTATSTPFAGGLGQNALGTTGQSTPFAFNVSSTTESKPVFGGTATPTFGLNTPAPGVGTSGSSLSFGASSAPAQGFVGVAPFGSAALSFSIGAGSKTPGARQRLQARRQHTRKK
UniProt Q96GD0: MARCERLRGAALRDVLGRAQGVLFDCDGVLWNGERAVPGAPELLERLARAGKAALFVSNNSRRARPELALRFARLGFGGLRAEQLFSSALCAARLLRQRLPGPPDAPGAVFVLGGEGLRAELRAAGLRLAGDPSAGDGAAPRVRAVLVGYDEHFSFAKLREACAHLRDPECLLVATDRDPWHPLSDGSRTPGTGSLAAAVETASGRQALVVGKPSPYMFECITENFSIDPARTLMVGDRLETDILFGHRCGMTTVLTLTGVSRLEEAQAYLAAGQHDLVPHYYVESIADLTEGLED
UniProt Q92945: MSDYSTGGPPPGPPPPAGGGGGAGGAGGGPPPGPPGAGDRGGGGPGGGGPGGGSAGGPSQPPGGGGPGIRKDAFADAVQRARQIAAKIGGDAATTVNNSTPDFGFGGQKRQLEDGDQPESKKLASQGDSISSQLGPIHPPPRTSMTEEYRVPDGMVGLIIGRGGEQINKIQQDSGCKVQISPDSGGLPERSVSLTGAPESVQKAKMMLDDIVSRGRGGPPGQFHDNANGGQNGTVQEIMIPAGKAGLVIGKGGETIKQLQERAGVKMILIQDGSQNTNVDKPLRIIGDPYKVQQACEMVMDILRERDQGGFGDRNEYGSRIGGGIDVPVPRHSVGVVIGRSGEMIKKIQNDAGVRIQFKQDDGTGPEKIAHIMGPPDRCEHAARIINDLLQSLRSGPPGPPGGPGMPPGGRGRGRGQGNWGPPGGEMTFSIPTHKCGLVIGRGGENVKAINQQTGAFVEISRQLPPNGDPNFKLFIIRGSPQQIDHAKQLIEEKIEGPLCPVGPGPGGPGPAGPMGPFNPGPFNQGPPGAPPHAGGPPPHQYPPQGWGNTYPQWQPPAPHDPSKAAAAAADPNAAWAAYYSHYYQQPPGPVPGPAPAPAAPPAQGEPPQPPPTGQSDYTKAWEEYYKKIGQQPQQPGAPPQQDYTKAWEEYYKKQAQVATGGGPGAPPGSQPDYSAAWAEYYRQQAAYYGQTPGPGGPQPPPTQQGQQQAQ
UniProt Q96CW6: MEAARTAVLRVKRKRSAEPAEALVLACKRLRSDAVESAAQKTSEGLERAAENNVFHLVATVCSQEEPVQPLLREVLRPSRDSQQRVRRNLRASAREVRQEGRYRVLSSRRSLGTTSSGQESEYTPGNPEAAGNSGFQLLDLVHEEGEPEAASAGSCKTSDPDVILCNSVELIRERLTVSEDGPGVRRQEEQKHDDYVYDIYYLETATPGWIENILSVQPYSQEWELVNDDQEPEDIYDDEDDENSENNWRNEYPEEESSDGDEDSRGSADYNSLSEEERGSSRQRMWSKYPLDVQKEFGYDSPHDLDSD

Compound: COC(=O)/C=C/c1ccccc1 [methyl cinnamate]
Test: log2 ratio of iodoacetamide-alkyne labeling of the cysteine site, DMSO over compound (competition); higher = stronger covalent engagement of the cysteine by the compound, active = 1 or more
Conditions: 500 µM; treatment time 1 h; system: HEK293T cell lysate
Procedure, shortened: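 HEK293T lysate (2 mg/mL) was treated with DMSO or electrophile (500 µM, 1 h, ambient temperature), then iodoacetamide alkyne (1 h), clicked to sCIP-TMT reagents, pooled, trypsin-digested overnight at 37 °C, streptavidin-enriched and acid-eluted. Peptides were run on Orbitrap Eclipse LC-MS/MS with FAIMS and quantified in FragPipe. The log2 competition ratio per cysteine is mean control-channel over mean compound-channel reporter intensity. Duplicate channels and three replicates were used, and cysteines quantified in only one replicate were excluded.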

log2 ratio of iodoacetamide-alkyne labeling, inactive:
TOE1 C271 (UniProt Q96GM8) 0.0476
SMARCC1 C164 (UniProt Q92922) 0.136
ZNF428 C114 (UniProt Q96B54) 0.128
UBXN4 C144 (UniProt Q92575) 0.328
SECISBP2L C544 (UniProt Q93073) 0.178
UniProt Q96FZ2_C131 0.26
PHF3 C885 (UniProt Q92576) 0.532
HSPH1 C658 (UniProt Q92598) 0.0648
TSC1 C306 (UniProt Q92574) 0.513
UniProt Q96EY5_C90 0.411
UniProt Q92841_C270 0.0872
TBRG4 C370 (UniProt Q969Z0) -0.202
UniProt Q92888_C911 0.274
UniProt Q92879_C62 0.222
EDC3 C477 (UniProt Q96F86) 0.155
GLMN C406 (UniProt Q92990) -0.145
DTNBP1 C302 (UniProt Q96EV8) 0.16
UniProt Q96HE7_C241 -0.0391
POM121 C461 (UniProt Q96HA1) 0.0997
PDXP C26 (UniProt Q96GD0) -0.131
KHSRP C379 (UniProt Q92945) 0.157
SLC7A6OS C166 (UniProt Q96CW6) 0.465

Already shown: an excerpt of the list.
log2 ratio of iodoacetamide-alkyne labeling, inactive:
TBRG4 C370 (UniProt Q969Z0) -0.202
UniProt Q92888_C911 0.274
